Data as given in PubChem BioAssay AID686937 (Drosophila RNAi Screening Center, 2013).

- Test: 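Genes whose loss weakens secretory pathway function in fly cells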 (primary screen)
- Cell system: Drosophila S2 cells expressing secreted horseradish peroxidase
- Reagent: long dsRNA against Drosophila genes
- Duration: about 5.5 days (5 days dsRNA, then 12 h reporter induction)
- Challenge: reporter expression induced after 5 days of dsRNA, read 12 h later; inducer not stated
- Measured: 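After 5 days of dsRNA and 12 h of reporter induction, medium peroxidase read by chemiluminescence and scored as per-plate z-score; higher values mean more reporter released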
- Reading the numbers: z-score: higher = more reporter secreted into medium
In all, the deposit lists about 23,000 reagents; below is an unselected part of those that have a named target and a result. 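Reduced-secretion tags in replicate 1 do not always agree with the z-scores; no criterion for assigning the tags was given.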 The numbers tell different reagents against one gene apart. Names joined by + are all predicted targets of the reagent. The record does not give: the amount of reagent.

| Target gene | reagent | z-score, replicate 1 | z-score, replicate 2 | z-score, replicate 3 | z-score, replicate 4 | phenotype, replicate 1 |
| --- | --- | --- | --- | --- | --- | --- |
| bsd | 1 | -0.4 | -0.06 | – | – | – |
| pio | 1 | -0.12 | -0.26 | – | – | – |
| Tcs4 | 1 | 0.22 | 0.46 | – | – | – |
| Ugt35C1 | 1 | 0.26 | 0.34 | – | – | – |
| CheA84a | 1 | 0.13 | 0.49 | – | – | – |
| O-fut2 | 1 | 0.41 | 0.12 | – | – | – |
| beat-Vb | 1 | 0.38 | 0.21 | – | – | – |
| beat-Vb | 2 | -2.22 | -0.13 | – | – | – |
| beat-Vb | 3 | -0.02 | -1.18 | – | – | – |
| CG3823 | 1 | 0.39 | 0.08 | – | – | – |
| CG7755 | 1 | 0.57 | 0.34 | – | – | – |
| Mctp | 1 | 0.43 | 0.19 | – | – | – |
| Mctp | 2 | 0.86 | 0.23 | – | – | – |
| Prosbeta2R1 | 1 | 0.19 | -0.08 | – | – | – |
| CG12862 | 1 | 0.26 | 0.08 | – | – | – |
| CG8543 | 1 | 0.29 | 0.31 | – | – | – |
| CG8543 | 2 | -0.22 | -0.56 | – | – | – |
| Or85a | 1 | 0.35 | 0.61 | – | – | – |
| Cyp6a8 | 1 | 0.38 | 0.25 | – | – | – |
| CG4854 | 1 | 0.29 | -0.16 | – | – | – |
| shd | 1 | 0.32 | 0.21 | – | – | – |
| Sou | 1 | 1.42 | 0.49 | – | – | – |
| xit | 1 | 0.54 | 0.59 | – | – | – |
| Ms | 1 | -0.34 | 0.02 | – | – | – |
| sbr | 1 | -3.26 | -2.72 | – | – | reduced secretion |
| sbr | 2 | -2.8 | -2.8 | – | – | reduced secretion |
| sip1 | 1 | -1.1 | -1.31 | – | – | – |
| sip1 | 2 | -0.77 | 0.24 | – | – | – |
| gce | 1 | 0.57 | 0.75 | – | – | – |
| gce | 2 | -0.41 | -0.87 | – | – | – |
| Pop2 | 1 | -1.79 | -1.01 | – | – | reduced secretion |
| Rab4 | 1 | 0.6 | 0.22 | – | – | – |
| CG15212 | 1 | 0.31 | 0.16 | – | – | – |
| CG13856 | 1 | 0.12 | 0.24 | – | – | – |
| PMCA | 1 | 0.61 | 0.03 | – | – | – |
| PMCA | 2 | 0.72 | 0.09 | – | – | – |
| PMCA | 3 | -0.55 | -0.07 | – | – | – |
| Ir100a | 1 | 0.27 | 0.35 | 1.57 | 1.38 | – |
| Fic | 1 | 0.04 | 0.14 | – | – | – |
| put | 1 | 0.03 | 0.22 | – | – | – |
| CheA87a | 1 | 0.3 | 0.62 | – | – | – |
| CG3651 | 1 | -0.06 | 0.14 | – | – | – |
| lncRNA:iab4 | 1 | -1.1 | 0.25 | – | – | – |
| Nep4 | 1 | 0.3 | 0.29 | – | – | – |
| CG15894 | 1 | 0.47 | 0.39 | – | – | – |
| CG15894 | 2 | -2.35 | -1.81 | – | – | reduced secretion |
| thoc6 | 1 | 0.03 | 0.15 | – | – | – |
| BicC | 1 | 0.64 | 0.33 | – | – | – |
| CG17707 | 1 | 0.24 | 0.13 | – | – | – |
| Mdr65 | 1 | 0.23 | 0.16 | 0.35 | 0.23 | – |
| CG15522 | 1 | 0.26 | 0.44 | – | – | – |
| PolA1 | 1 | 0.38 | -0.49 | – | – | – |
| CG30031 + deltaTry + CG30025 + 1 more | 1 | 0.29 | 0.2 | – | – | – |
| sll | 1 | 0.21 | 0.34 | – | – | – |
| lectin-37Da | 1 | 0.09 | -0.14 | 0.33 | 0.37 | – |
| lectin-37Da | 2 | 0.75 | 0.12 | – | – | – |
| CG3176 + CR18166 + CG32817 | 1 | 0.45 | -0.44 | – | – | – |
| CG3176 + CR18166 + CG32817 | 2 | 0.4 | 0.33 | – | – | – |
| CG3176 + CR18166 + CG32817 | 3 | 0.43 | 0.02 | – | – | – |
| Prosbeta4 | 1 | -6.3 | -6.06 | – | – | reduced secretion |
| tim | 1 | 0.27 | 0.44 | – | – | – |
| CG14718 | 1 | 0.58 | 0.46 | – | – | – |
| Gagr | 1 | 0.08 | 0.3 | – | – | – |
| Ih | 1 | 0.46 | 0.24 | – | – | – |
| Ih | 2 | 0.17 | 0.2 | – | – | – |
| Ih | 3 | -0.73 | -0.17 | – | – | – |
| CG33309 | 1 | 0.53 | 0.17 | – | – | – |
| CG13063 | 1 | 0.29 | 0.19 | – | – | – |
| Brr2 | 1 | -4.09 | -3.09 | – | – | reduced secretion |
| Dpp10 | 1 | -0.79 | 0.05 | – | – | – |
| Dpp10 | 2 | -0.15 | 0.17 | – | – | – |
| CG12491 + CG34105 | 1 | 0.36 | – | – | – | – |
| CG12491 + CG34105 | 2 | 0.3 | 0.42 | – | – | – |
| Oseg5 | 1 | 0.45 | 0.55 | – | – | – |
| CG31769 | 1 | 0.11 | 0.48 | – | – | – |
| CG9330 | 1 | 0.27 | -0.07 | – | – | – |
| CG3285 | 1 | 0.18 | 0.41 | – | – | – |
| CG32488 | 1 | 0.75 | 0.26 | – | – | – |
| CG32488 | 2 | 0.79 | 1.01 | – | – | – |
| Octbeta1R | 1 | 0.03 | 0.1 | – | – | – |
| CG32106 | 1 | 0.41 | 0.41 | – | – | – |
| Nup75 | 1 | 0.4 | 0.41 | – | – | – |
| Dpy-30L1 | 1 | 0.58 | 0.47 | – | – | – |
| ari-2 | 1 | 0.32 | 0.31 | – | – | – |
| CG32669 | 1 | 0.05 | 0.12 | – | – | – |
| CG34025 | 1 | 0 | 0.41 | – | – | – |
| Ama | 1 | 0.22 | 0.05 | – | – | – |
| CG32017 | 1 | 0.28 | 0.37 | – | – | – |
| CG13868 | 1 | 0.43 | 0.17 | – | – | – |
| CG14760 | 1 | 0.17 | 0.19 | – | – | – |
| CG32815 | 1 | 0.37 | 0.34 | – | – | – |
| CG32815 | 2 | -0.13 | 0.24 | – | – | – |
| ATPsynC | 1 | -0.39 | -1.25 | – | – | – |
| Cyp9f2 | 1 | 0.12 | -0.02 | – | – | – |
| att-ORFB + DPCoAC | 1 | 0.29 | 0.43 | – | – | – |
| CG3434 | 1 | 0.21 | 0.03 | – | – | – |
| Nadk1a | 1 | -0.13 | 0.01 | – | – | – |
| Nadk1a | 2 | -0.11 | 0.04 | – | – | – |
| CG13154 | 1 | -2.57 | -0.44 | – | – | reduced secretion |
| CG42367 | 1 | 0 | -0.12 | – | – | – |
| CG15554 | 1 | 0.33 | 0.36 | – | – | – |
| Lrp4 | 1 | 0.29 | 0.17 | – | – | – |
| CG8492 | 1 | -0.81 | 0.55 | 0.3 | 0.53 | – |
| CG8492 | 2 | -0.32 | 0.55 | – | – | – |
